This note sets out measurements from PubChem BioAssay AID256 (DTP/NCI, 2004).

The list shows only some results of the screen, not a fair sample: its compounds were picked by chemical class. Other doses and runs of a compound may be missing. T/C: endpoint of the treated group in % of that of the vehicle group. Some doses have a count of surviving animals in place of a T/C: the source holds a T/C of zero for them, seemingly a mark for toxic or unscored doses. Some survivor counts are full or nearly so, which does not show that the dose was tolerated: the source hardly ever lists a survival T/C far under the control, and the zero likely stands for such cases as well. Counts of survivors are from the toxicity check (mostly the fifth day) where no day follows; animals may have died later. Schedule codes are those of the source, read here as Q, the interval in days (D) or hours (H), X, the number of doses. For survival time, the PubChem record calls one and a half times the control and up active, and a quarter to a half above the control has no call in these data; cut-offs in other NCI protocols can differ. Some entries were tested several times; their values stand side by side, smallest first. Some schedules carry Z or #; the key to these is not given. Some T/C values are marked as having no survivor count here; that says nothing about deaths at the dose. Some T/C values are followed by the survivors on the day toxicity was checked, most often the fifth; without a count or a note in brackets, all were alive then.

The experiment has as its system CD2F1 mice, L1210 leukemia ip, survival T/C. As to the kind of experiment: NCI In Vivo Anticancer Drug Screen. Data for tumor model L1210 Leukemia (intraperitoneal) in CD2F1 (CDF1) mice. Particulars: T/C endpoint: mean survival time, higher T/C = longer survival. A digest of the protocol:
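Vehicle-treated tumor-bearing mice served as controls (C) for compound-treated mice (T). Reported figure is T divided by C.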

[1] abbreviates: dose: 15.63 mg/kg/injection, schedule: Q01DX001 (ip), vehicle: DMSO.
Where [2] appears, read: dose: 31.25 mg/kg/injection, schedule: Q01DX001 (ip), vehicle: DMSO.
Setting [3] is: dose: 62.5 mg/kg/injection, schedule: Q01DX001 (ip), vehicle: DMSO.
Setting [4] is: dose: 125.0 mg/kg/injection, schedule: Q01DX001 (ip), vehicle: DMSO.
The mark [5] stands for this setting: dose: 250.0 mg/kg/injection, schedule: Q01DX001 (ip), vehicle: DMSO.
[6] abbreviates: dose: 500.0 mg/kg/injection, schedule: Q01DX001 (ip), vehicle: DMSO.
Where [7] appears, read: dose: 1000.0 mg/kg/injection, schedule: Q01DX001 (ip), vehicle: DMSO.
Setting [8] is: dose: 25.0 mg/kg/injection, schedule: Q01DX001 (ip), vehicle: DMSO.
Where [9] appears, read: dose: 50.0 mg/kg/injection, schedule: Q01DX001 (ip), vehicle: DMSO.
Where [10] appears, read: dose: 100.0 mg/kg/injection, schedule: Q01DX001 (ip), vehicle: DMSO.
Where [11] appears, read: dose: 200.0 mg/kg/injection, schedule: Q01DX001 (ip), vehicle: DMSO.
Setting [12] is: dose: 266.0 mg/kg/injection, schedule: Q01DX001 (ip), vehicle: DMSO.
Where [13] appears, read: dose: 400.0 mg/kg/injection, schedule: Q01DX001 (ip), vehicle: DMSO, evaluated on day 25.
The mark [14] stands for this setting: dose: 400.0 mg/kg/injection, schedule: Q01DX001 (ip), vehicle: DMSO, evaluated on day 60.
Setting [15] is: dose: 600.0 mg/kg/injection, schedule: Q01DX001 (ip), vehicle: DMSO.
[16] abbreviates: dose: 900.0 mg/kg/injection, schedule: Q01DX001 (ip), vehicle: DMSO.

In the case of `C#CCOP(N)(=O)N(CCCl)CCCl` (stereo not drawn), the T/C reads like this: under setting [1], 98 % of control; under setting [2], 98 % of control; under setting [3], 97 % of control; under setting [4], 101 % of control; under setting [5], 98 % of control; under setting [6], 103 % of control. The survivor count under setting [7] is 0 of 6.
In the case of `NNc1nc(NN)nc(NN)n1`, the T/C (dose: 100.0 mg/kg/injection, schedule: Q04DX003 (ip), vehicle: Klucel (hydroxypropylcellulose) (HPC)) was 92 % of control. In addition, the survivor count runs as follows: (dose: 200.0 mg/kg/injection, schedule: Q04DX003 (ip), vehicle: Klucel (hydroxypropylcellulose) (HPC)) 3 of 3; (dose: 400.0 mg/kg/injection, schedule: Q04DX003 (ip), vehicle: Klucel (hydroxypropylcellulose) (HPC)) 3 of 3.
For the molecule `CCNP(=O)(OCCCO)N(CCCl)CCCl` (stereo not drawn), the T/C is 102 % of control under setting [8]; 100 % of control under setting [9]; 108 % of control under setting [10]; 116 % of control under setting [11]; 109 % of control under setting [12]; 114 % of control under setting [13]. Also, the T/C was 141 % of control under setting [14], 119 % of control under setting [15] and 123 % of control under setting [16].
With `O=C1CCNP(=O)(N(CCCl)CCCl)O1` (stereo not drawn), the T/C is, setting by setting: under setting [1], 102 % of control; under setting [2], 108 % of control; under setting [3], 111 % of control; under setting [4], 111 % of control; under setting [5], 133 % of control. Moreover, the survivor count under setting [6] was 0 of 6 and the survivor count under setting [7] is 0 of 6.
For `CN(C)P(=O)(OCCC=O)N(CCCl)CCCl` (stereo not drawn), the T/C is, setting by setting: under setting [8], 100 % of control; under setting [9], 112 % of control; under setting [10], 110 % of control; under setting [11], 141 % of control; under setting [12], 109 % of control; under setting [13], 109 % of control. The T/C by setting is: under setting [14], 165 % of control; under setting [15], 111 % of control; under setting [16], 122 % of control [4 of 6 alive].
Consider `CCN(CCCl)c1ccc(CCN)cc1`, for which the T/C runs as follows: (dose: 2.5 mg/kg/injection, schedule: Q01DX001 (ip), vehicle: saline) 107 % of control; (dose: 5.0 mg/kg/injection, schedule: Q01DX001 (ip), vehicle: saline) 102 % of control; (dose: 10.0 mg/kg/injection, schedule: Q01DX001 (ip), vehicle: saline) 105 and 108 % of control. In addition, the survivor count by setting is: (dose: 20.0 mg/kg/injection, schedule: Q01DX001 (ip), vehicle: saline) 3 of 6; (dose: 40.0 mg/kg/injection, schedule: Q01DX001 (ip), vehicle: saline) 0 of 6; (dose: 100.0 mg/kg/injection, schedule: Q01DX001 (ip), vehicle: saline) 0 of 6; (dose: 200.0 mg/kg/injection, schedule: Q01DX001 (ip), vehicle: saline) 0 of 6; (dose: 400.0 mg/kg/injection, schedule: Q01DX001 (ip), vehicle: saline) 0 of 6.
For `Cc1cc([N+](=O)[O-])cc([N+](=O)[O-])c1`, the T/C reads like this: (dose: 100.0 mg/kg/injection, schedule: Q04DX002 (ip), vehicle: Klucel (hydroxypropylcellulose) (HPC)) 97 % of control [survivor count not shown]; (dose: 200.0 mg/kg/injection, schedule: Q04DX002 (ip), vehicle: Klucel (hydroxypropylcellulose) (HPC)) 105 % of control [survivor count not shown]; (dose: 400.0 mg/kg/injection, schedule: Q04DX002 (ip), vehicle: Klucel (hydroxypropylcellulose) (HPC)) 90 % of control [survivor count not shown].
For the molecule `COC(=O)/C=C/N(CCF)CCCl`, the T/C is 102 % of control (dose: 1.0 mg/kg/injection, schedule: Q01DX Z (ip), vehicle: saline); 102 % of control (dose: 3.0 mg/kg/injection, schedule: Q01DX Z (ip), vehicle: saline); 123 % of control (dose: 10.0 mg/kg/injection, schedule: Q01DX Z (ip), vehicle: saline).
Take `CCCCNCCN(CCCC)C(=N)C(=N)N(CCCC)CCNCCCC.O=[N+]([O-])c1cc([N+](=O)[O-])c(O)c([N+](=O)[O-])c1`: the T/C (dose: 50.0 mg/kg/injection, schedule: Q04DX002 (ip), vehicle: saline with Tween-80) is 96 % of control; the T/C (dose: 100.0 mg/kg/injection, schedule: Q04DX002 (ip), vehicle: saline with Tween-80) is 96 % of control; the T/C (dose: 200.0 mg/kg/injection, schedule: Q04DX002 (ip), vehicle: saline with Tween-80) was 89 % of control.
Regarding `CC1(C)COP(=O)(N(CCCl)CCCl)OC1`, the T/C reads like this: (dose: 62.5 mg/kg/injection, schedule: Q01DX001 (ip), vehicle: other) 97 % of control; (dose: 125.0 mg/kg/injection, schedule: Q01DX001 (ip), vehicle: other) 87 % of control; (dose: 250.0 mg/kg/injection, schedule: Q01DX001 (ip), vehicle: other) 103 % of control. The survivor count (dose: 500.0 mg/kg/injection, schedule: Q01DX001 (ip), vehicle: other) is 2 of 6.
For the molecule `CCN(CC)CCOC(=O)C(O)(c1ccccc1)c1c(C)cc(C)cc1C` (stereo not drawn), the T/C by setting is: (dose: 75.0 mg/kg/injection, schedule: Q01DX001 (ip), vehicle: saline) 108 % of control; (dose: 150.0 mg/kg/injection, schedule: Q01DX001 (ip), vehicle: saline) 103 % of control; (dose: 300.0 mg/kg/injection, schedule: Q01DX001 (ip), vehicle: saline) 105 % of control.
`CCOC(=O)C1CCOP(=O)(N(CCCl)CCCl)N1` (stereo not drawn): the T/C runs as follows: (dose: 62.5 mg/kg/injection, schedule: Q01DX001 (ip), vehicle: water) 108 % of control; (dose: 125.0 mg/kg/injection, schedule: Q01DX001 (ip), vehicle: water) 114 % of control; (dose: 222.0 mg/kg/injection, schedule: Q01DX001 (ip), vehicle: water) 111 % of control; (dose: 250.0 mg/kg/injection, schedule: Q01DX001 (ip), vehicle: water) 114 % of control; (dose: 333.0 mg/kg/injection, schedule: Q01DX001 (ip), vehicle: water) 111 % of control; (dose: 500.0 mg/kg/injection, schedule: Q01DX001 (ip), vehicle: water) 110 and 130 % of control.
Turning to `NC(CC(=O)NCc1ccc(S(=O)(=O)F)cc1)C(=O)O` (stereo not drawn), the T/C is, setting by setting: (dose: 50.0 mg/kg/injection, schedule: Q01DX009 (ip), vehicle: Klucel (hydroxypropylcellulose) (HPC)) 108 % of control; (dose: 100.0 mg/kg/injection, schedule: Q01DX009 (ip), vehicle: Klucel (hydroxypropylcellulose) (HPC)) 94 % of control; (dose: 200.0 mg/kg/injection, schedule: Q01DX009 (ip), vehicle: Klucel (hydroxypropylcellulose) (HPC)) 96 % of control.
